# Source: patent publication US11292821B2, “Peptides and combination of peptides for use in immunotherapy against lung cancer, including NSCLC, SCLC and other cancers” (Immatics Biotechnologies GmbH, priority 2017, dated 2022)
# System: tumor tissue samples
# Test: Identification and relative quantitation of HLA-presented tumor associated peptides by LC-MS (presentation profile)
# Set-up: species or system human
# Conditions: for Peptide Presentation on cancer entities: cancer entities on which the tumor-associated peptide was found presented (HLA ligandome LC-MS), abbreviations per table footnote
Substance,Peptide Presentation on cancer entities,also measured
SEQ ID NO.: 154 (LLDISQKNLY; listed as Homo sapiens),–,"over-presentation of peptide in cancer tissues compared to normal samples (HLA-A*01 cancer tissues vs HLA-A*01 normal samples (N=13 normal, N=40 tumor), FIGS. 1E-1F): over-presentation"
316 (VIKEKALTL; listed as Homo sapiens) [compound 316],"NHL, OC, PRCA, RCC",–
295 (KPEGTRIAV; listed as Homo sapiens) [compound 295],"NHL, UEC",–
394 (ASEAEMRLFY; listed as Homo sapiens) [compound 394],"GBM, GC, MEL, NHL",–
124 (SVASVLLYL; listed as Homo sapiens) [compound 124],"AML, BRCA, CLL, HCC, HNSCC, NHL, OC",–
385 (MYINEVERL; listed as Homo sapiens) [compound 385],"GBM, MEL, OC, PRCA, UEC",–
323 (SEFMQVIF; listed as Homo sapiens) [compound 323],NHL,–
420 (LTEDKETLQY; listed as Homo sapiens) [compound 420],"GC, HCC, MEL, NHL, PRCA",–
219 (RLRSSLVFK; listed as Homo sapiens) [compound 219],UEC,–
447 (VVDEDHELIY; listed as Homo sapiens) [compound 447],GBM,–
432 (NVDPVQHTY; listed as Homo sapiens) [compound 432],"GBM, GC, HCC, HNSCC, MEL, NHL, OC, OSCAR, PRCA, RCC, UEC",–
180 (STDPWIQMAY; listed as Homo sapiens) [compound 180],"GBM, GC, MEL",–
473 (LPRALLSSL; listed as Homo sapiens) [compound 473],"NHL, OC",–
103 (FLYYPDPVL; listed as Homo sapiens) [compound 103],"GBC, HCC, MEL, NHL",–
150 (GTELLSLVY; listed as Homo sapiens) [compound 150],"GC, MEL, NHL, OC, PRCA, UEC",–
157 (LMDRPIFY; listed as Homo sapiens) [compound 157],"GBM, GC, MEL, NHL",–
416 (LLDTAQKNLY; listed as Homo sapiens) [compound 416],"GBM, NHL, PRCA",–
484 (AEVGFVRFF; listed as Homo sapiens) [compound 484],"AML, MEL, NHL, OC",–
141 (ESDVGVVVY; listed as Homo sapiens) [compound 141],"GBM, GC",–
167 (QSDPGTSVLGY; listed as Homo sapiens) [compound 167],GBM,–
73 (SYIGLPLTL; listed as Homo sapiens) [compound 73],"GC, HCC, RCC",–
390 (HIMPTVHTV; listed as Homo sapiens) [compound 390],"BRCA, CLL, GBM, HCC, HNSCC, MEL, NHL, OC, OSCAR, UBC, UEC",–
134 (AAEIGDKSWLY; listed as Homo sapiens) [compound 134],"GC, MEL, NHL, UEC",–
235 (MPLKHYLLL; listed as Homo sapiens) [compound 235],"MEL, NHL, OC, UEC",–
172 (RTDSCSSAQAQY; listed as Homo sapiens) [compound 172],MEL,–

Substance,Peptide Presentation on cancer entities,also measured
470 (SPNSYFRVL; listed as Homo sapiens) [compound 470],RCC,–
127 (GLDGSLVFL; listed as Homo sapiens) [compound 127],"AML, CLL, CRC, GBM, HCC, HNSCC, MEL, NHL, OC, OSCAR, UBC",–
347 (ALNPYQYQY; listed as Homo sapiens) [compound 347],UEC,–
419 (LSELKPMSY; listed as Homo sapiens) [compound 419],"GBM, GC, HCC, MEL, OSCAR, PRCA, RCC, UEC",–
74 (VYDQYFITL; listed as Homo sapiens) [compound 74],"AML, PRCA",–
389 (TLMEQPLTTL; listed as Homo sapiens) [compound 389],"AML, BRCA, CRC, HCC, HNSCC, NHL, OC, PRCA, UEC",–
68 (IYQQIIQTY; listed as Homo sapiens) [compound 68],"GC, MEL, UEC",–
386 (VYNDHSIYVW; listed as Homo sapiens) [compound 386],"AML, GBM, HCC, MEL, NHL, PRCA, UEC",–
207 (RSFNGLLTMY; listed as Homo sapiens) [compound 207],"MEL, OC",–
465 (VPRPIFSQL; listed as Homo sapiens) [compound 465],NHL,–
237 (RPAATAVISL; listed as Homo sapiens) [compound 237],"GBM, NHL, OC",–
284 (FPVTSIFHTF; listed as Homo sapiens) [compound 284],"MEL, OC, UEC",–
474 (LPRLLPAL; listed as Homo sapiens) [compound 474],"AML, NHL",–
311 (EIRIRVVQM; listed as Homo sapiens) [compound 311],"MEL, NHL, OC, PRCA",–
145 (FVDKPVAY; listed as Homo sapiens) [compound 145],"GBM, GC, MEL",–
77 (AYTLLGHEFV; listed as Homo sapiens) [compound 77],"GC, MEL, OC",–
255 (MPLLENLYL; listed as Homo sapiens) [compound 255],"OC, UEC",–
276 (LPRAGGAFL; listed as Homo sapiens) [compound 276],"NHL, OC, RCC, UEC",–
482 (TEREWADEW; listed as Homo sapiens) [compound 482],"AML, MEL, NHL, OC, RCC",–
58 (QFAAPLRGIYF; listed as Homo sapiens) [compound 58],"GBM, HCC",–
322 (KEVDPAGHSY; listed as Homo sapiens) [compound 322],NHL,–
450 (YSDDGQKWTVY; listed as Homo sapiens) [compound 450],MEL,–
82 (RFLPSPVVI; listed as Homo sapiens) [compound 82],"AML, GC, HCC, MEL, PRCA, UEC",–
436 (QTETGTPYMLY; listed as Homo sapiens) [compound 436],"GBM, GC, MEL, NHL, OC, OSCAR, PRCA, UEC",–
18 (DYIGSVEKW; listed as Homo sapiens) [compound 18],PRCA,–

Substance,Peptide Presentation on cancer entities,also measured
154 (LLDISQKNLY; listed as Homo sapiens) [compound 154],"GBM, NHL, PRCA",–
452 (YVDAVLGKGHQY; listed as Homo sapiens) [compound 452],"GBM, GC, MEL, NHL, OC, PRCA, UEC",–
212 (KAYEQVMHY; listed as Homo sapiens) [compound 212],UEC,–
140 (ESDREELNY; listed as Homo sapiens) [compound 140],"GC, PRCA",–
387 (RWLPQKNAAQF; listed as Homo sapiens) [compound 387],"AML, GC, HCC, MEL, OC, RCC, UEC",–
428 (NSELSCQLY; listed as Homo sapiens) [compound 428],"GBM, GC, MEL, RCC",–
430 (NTEGLHHLY; listed as Homo sapiens) [compound 430],"GBM, HCC, MEL, PRCA",–
70 (PYTNYTFDF; listed as Homo sapiens) [compound 70],"GC, MEL",–
443 (TTDFPSESSFEY; listed as Homo sapiens) [compound 443],"GC, MEL, NHL, OC, PRCA, UEC",–
487 (AEDQLHHSF; listed as Homo sapiens) [compound 487],"AML, NHL",–
71 (SYMVLAPVF; listed as Homo sapiens) [compound 71],MEL,–
65 (VYPASKMFPFI; listed as Homo sapiens) [compound 65],"GBM, GC, HCC, MEL, NHL, OC, UEC",–
321 (AEMLESVIKNY; listed as Homo sapiens) [compound 321],NHL,–
117 (FLDPNARPLV; listed as Homo sapiens) [compound 117],"NHL, OC",–
397 (ASEITSKGASLY; listed as Homo sapiens) [compound 397],"GBM, GC, HCC, MEL, OC, PRCA",–
3 (YLEKFYGL; listed as Homo sapiens) [compound 3],HCC,–
330 (KEGDLGGKQW; listed as Homo sapiens) [compound 330],NHL,–
421 (LTELLERAAFY; listed as Homo sapiens) [compound 421],"GC, MEL, NHL, UEC",–
SEQ ID NO.: 317 (LVKVKVLL; listed as Homo sapiens),–,"over-presentation of peptide in cancer tissues compared to normal samples (HLA-B*08 cancer tissues vs HLA-B*08 normal samples (N=1 normal, N=22 tumor), FIGS. 1K-1L): over-presentation"
425 (NLDIIQQEY; listed as Homo sapiens) [compound 425],"GBM, GC, HCC, MEL, NHL, OC, OSCAR, PRCA, UEC",–
173 (RTEFNLNQY; listed as Homo sapiens) [compound 173],"GBC, GC, MEL, UEC",–
48 (VFIDHPVHLKF; listed as Homo sapiens) [compound 48],UEC,–
433 (QIDTGENLY; listed as Homo sapiens) [compound 433],"GC, MEL",–
113 (AVLTGLVEV; listed as Homo sapiens) [compound 113],"BRCA, CLL, CRC, GC, HCC, NHL, OSCAR, RCC, UEC",–
